Values from PubChem BioAssay AID652272 (Drosophila RNAi Screening Center, 2013)
Purpose: 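Genes whose knock-down decreases or increases Hedgehog reporter output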 (primary screen). Cell system: Drosophila clone 8 (Cl8) cells. Knock-down reagent: long dsRNA against Drosophila genes. Measured: 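Firefly light from a Hedgehog-responsive ptc promoter reporter and Renilla reference light, both read on a plate reader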. Direction: firefly Hh reporter signal: higher = more ptc reporter light; Renilla reference signal: higher = more Renilla control light. Hit rule: 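Called a hit if the two-replicate mean z-score lies below -2 or above +3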. Calls: active = hit: reporter lowered or raised; inactive = not a hit.
In all, the deposit lists about 21,000 reagents; this is a random part of those with a known target gene and a result. In the full data, 503 (2.4%) got an active call. 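Raw plate light values, not normalised; calls rest on replicate z-scores that were not deposited; hits include reporter decreases as well as increases.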 Not stated in the record: the amount of reagent, the time to read-out.

CG6574 [DRSC16070] scored firefly Hh reporter signal, replicate 1 = 48214; firefly Hh reporter signal, replicate 2 = 89936; Renilla reference signal, replicate 1 = 1842; Renilla reference signal, replicate 2 = 2592; inactive. Nup54 (Nucleoporin 54kD) [DRSC07282] showed firefly Hh reporter signal, replicate 1 = 1.18e5; firefly Hh reporter signal, replicate 2 = 59693; Renilla reference signal, replicate 1 = 4100; Renilla reference signal, replicate 2 = 2393; inactive. After knock-down of Osi23 (Osiris 23) [DRSC15074], the screen gave firefly Hh reporter signal, replicate 1 = 1.20e5; firefly Hh reporter signal, replicate 2 = 1.04e5; Renilla reference signal, replicate 1 = 4531; Renilla reference signal, replicate 2 = 3017; inactive. Against CG12446 [DRSC20618], the entry reads firefly Hh reporter signal, replicate 1 = 78604; firefly Hh reporter signal, replicate 2 = 1.76e5; Renilla reference signal, replicate 1 = 2338; Renilla reference signal, replicate 2 = 7979; inactive. Silencing of CG42565 [DRSC04154] resulted in: firefly Hh reporter signal, replicate 1 = 75616; firefly Hh reporter signal, replicate 2 = 40717; Renilla reference signal, replicate 1 = 2080; Renilla reference signal, replicate 2 = 3913; inactive. Bcs1 (Bcs1 chaperone) [DRSC02789] scored firefly Hh reporter signal, replicate 1 = 66893; firefly Hh reporter signal, replicate 2 = 54645; Renilla reference signal, replicate 1 = 1768; Renilla reference signal, replicate 2 = 4401; inactive.

CG43331 [DRSC11671] scored firefly Hh reporter signal, replicate 1 = 1.25e5; firefly Hh reporter signal, replicate 2 = 1.66e5; Renilla reference signal, replicate 1 = 4883; Renilla reference signal, replicate 2 = 2720; inactive. Depletion of CG5104 [DRSC11765] gave: firefly Hh reporter signal, replicate 1 = 1.13e5; firefly Hh reporter signal, replicate 2 = 89751; Renilla reference signal, replicate 1 = 4185; Renilla reference signal, replicate 2 = 3046; inactive. Knock-down of CG9691 [DRSC18441] resulted in: firefly Hh reporter signal, replicate 1 = 88157; firefly Hh reporter signal, replicate 2 = 1.79e5; Renilla reference signal, replicate 1 = 2365; Renilla reference signal, replicate 2 = 7606; inactive. After knock-down of Hex-C (Hexokinase C) [DRSC07079], the record shows firefly Hh reporter signal, replicate 1 = 66663; firefly Hh reporter signal, replicate 2 = 56247; Renilla reference signal, replicate 1 = 1673; Renilla reference signal, replicate 2 = 3952; inactive. CG8379 [DRSC16414] showed firefly Hh reporter signal, replicate 1 = 70904; firefly Hh reporter signal, replicate 2 = 1.16e5; Renilla reference signal, replicate 1 = 2915; Renilla reference signal, replicate 2 = 3954; inactive. After knock-down of CG34458 [DRSC06925] the results were firefly Hh reporter signal, replicate 1 = 1.04e5; firefly Hh reporter signal, replicate 2 = 55414; Renilla reference signal, replicate 1 = 3123; Renilla reference signal, replicate 2 = 4205; inactive.

Only “Renilla reference signal, replicate 1” (2 entries from above):
CG9691 [DRSC18441] = 2365
Hex-C (Hexokinase C) [DRSC07079] = 1673
